Laboratory results taken from PMC6272137, “Synthesis and Evaluation of Paeonol Derivatives as Potential Multifunctional Agents for the Treatment of Alzheimer’s Disease” (Molecules, 2015).

Assay: Metal-chelating study by UV-vis spectrophotometry in methanol
Type: physicochemical

In the case of `COc1ccc(C(=O)CN2CCN(Cc3ccc(C)cc3)CC2)c(O)c1` [5b, 1-(2-Hydroxy-4-methoxyphenyl)-2-(4-(4-methylbenzyl)piperazin-1-yl) ethanone], the “UV spectrum change on addition of CuCl2” value (40 μM compound, 40 μM CuCl2, methanol, peak at 275 nm shifted to 271 nm) is reported as “could interact with Cu^2+ effectively”, the “UV spectrum change on addition of FeSO4” value (40 μM compound, 40 μM FeSO4, methanol) is reported as “absorption intensity change could also be observed” and the “UV spectrum change on titrating with Zn^2+” value (40 μM compound, 40 μM ZnCl2, methanol) is reported as “little change”. For the same compound, the “mole fraction at intersection of the two straight lines” value (molar ratio method, 40 μM compound titrated with CuCl2 in methanol, absorbance at 375 nm) was 0.98.
